This passage reports binding results from patent US20230183347A1.

Chains of the proteins cited; added tags and fusions are not shown. Lines headed by an entry give the natural chain unless they say otherwise; changes in a name come on top.
UniProt Q15116: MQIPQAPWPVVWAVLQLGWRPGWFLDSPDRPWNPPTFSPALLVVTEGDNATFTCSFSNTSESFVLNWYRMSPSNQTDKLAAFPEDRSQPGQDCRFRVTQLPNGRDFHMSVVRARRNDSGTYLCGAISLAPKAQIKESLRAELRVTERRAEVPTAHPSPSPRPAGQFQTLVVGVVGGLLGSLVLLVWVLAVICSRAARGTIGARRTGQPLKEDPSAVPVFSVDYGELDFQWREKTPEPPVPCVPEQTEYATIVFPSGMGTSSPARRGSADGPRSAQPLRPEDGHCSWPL

No constants are given. Whether binding was seen depends on the method and setting. Some binding calls cover weakened binding; strength is not graded here.

This assay addresses human PD-1 (form used in the binding test not stated) (human) (UniProt Q15116). The assay is described as follows: domain mapping; method not described (definition in paragraph 30).

B1: HM266, anti-human PD-1 mouse monoclonal antibody (mouse IgG1, kappa) (antibody, V domains shown)
VH: QVQLQQSGPELVKPGASVKMSCKASGYTFTSYYIQWVKQRPGQGLEWIGWIYPGDGSSKYNEKFKGKTTLTADKSSSTAYMLLSSLTSEDSGIYFCASYYGSSFDYWGQGTTLTVSS
VL: DIQMTQTTSSLSASLGDRVTISCRASQDISNYLNWYQQKPDGTVKFLIYYSSRLHSGVPSRFSGSGSGTDYSLTISNLEQEDIATYFCQQGSTLPFTFGGGTKLEIKR
Take B1: the binding entry was “binds”.

B2: HM647, anti-human PD-1 mouse monoclonal antibody (mouse IgG1, kappa) (antibody, V domains shown)
VH: EVLLQQSGPELVKPGASVKITCKASGYTFTDYNMDWVKQSHGKSLEWIGDIDPNNGGTVYNQKFKDKASLTVDKSSSTGYMELRSLTSEDTAVYYCARWRSAMDYWGQGTSVTVSS
VL: DIQMTQPTSSLSASLGDRVTISCRASQDISNYLNWYQQKPDGTVKLLISYTSRLHSGVPSRFSGSGSGTDYSLTISNLEQVDIATYFCQQYSTLPWTFGGGSKLEIKR
For the molecule B2, the binding entry is on record as “binds”.
